From PMC5766157
No constants are given. Whether binding was seen depends on the method and setting. Binding seen in cells or lysates may run through a third protein. Here binding means that the protein was enriched with, or labelled near, the bait; the list need not be complete.

The chains behind the UniProt entries cited, without tags or fusion partners.
UniProt P13864: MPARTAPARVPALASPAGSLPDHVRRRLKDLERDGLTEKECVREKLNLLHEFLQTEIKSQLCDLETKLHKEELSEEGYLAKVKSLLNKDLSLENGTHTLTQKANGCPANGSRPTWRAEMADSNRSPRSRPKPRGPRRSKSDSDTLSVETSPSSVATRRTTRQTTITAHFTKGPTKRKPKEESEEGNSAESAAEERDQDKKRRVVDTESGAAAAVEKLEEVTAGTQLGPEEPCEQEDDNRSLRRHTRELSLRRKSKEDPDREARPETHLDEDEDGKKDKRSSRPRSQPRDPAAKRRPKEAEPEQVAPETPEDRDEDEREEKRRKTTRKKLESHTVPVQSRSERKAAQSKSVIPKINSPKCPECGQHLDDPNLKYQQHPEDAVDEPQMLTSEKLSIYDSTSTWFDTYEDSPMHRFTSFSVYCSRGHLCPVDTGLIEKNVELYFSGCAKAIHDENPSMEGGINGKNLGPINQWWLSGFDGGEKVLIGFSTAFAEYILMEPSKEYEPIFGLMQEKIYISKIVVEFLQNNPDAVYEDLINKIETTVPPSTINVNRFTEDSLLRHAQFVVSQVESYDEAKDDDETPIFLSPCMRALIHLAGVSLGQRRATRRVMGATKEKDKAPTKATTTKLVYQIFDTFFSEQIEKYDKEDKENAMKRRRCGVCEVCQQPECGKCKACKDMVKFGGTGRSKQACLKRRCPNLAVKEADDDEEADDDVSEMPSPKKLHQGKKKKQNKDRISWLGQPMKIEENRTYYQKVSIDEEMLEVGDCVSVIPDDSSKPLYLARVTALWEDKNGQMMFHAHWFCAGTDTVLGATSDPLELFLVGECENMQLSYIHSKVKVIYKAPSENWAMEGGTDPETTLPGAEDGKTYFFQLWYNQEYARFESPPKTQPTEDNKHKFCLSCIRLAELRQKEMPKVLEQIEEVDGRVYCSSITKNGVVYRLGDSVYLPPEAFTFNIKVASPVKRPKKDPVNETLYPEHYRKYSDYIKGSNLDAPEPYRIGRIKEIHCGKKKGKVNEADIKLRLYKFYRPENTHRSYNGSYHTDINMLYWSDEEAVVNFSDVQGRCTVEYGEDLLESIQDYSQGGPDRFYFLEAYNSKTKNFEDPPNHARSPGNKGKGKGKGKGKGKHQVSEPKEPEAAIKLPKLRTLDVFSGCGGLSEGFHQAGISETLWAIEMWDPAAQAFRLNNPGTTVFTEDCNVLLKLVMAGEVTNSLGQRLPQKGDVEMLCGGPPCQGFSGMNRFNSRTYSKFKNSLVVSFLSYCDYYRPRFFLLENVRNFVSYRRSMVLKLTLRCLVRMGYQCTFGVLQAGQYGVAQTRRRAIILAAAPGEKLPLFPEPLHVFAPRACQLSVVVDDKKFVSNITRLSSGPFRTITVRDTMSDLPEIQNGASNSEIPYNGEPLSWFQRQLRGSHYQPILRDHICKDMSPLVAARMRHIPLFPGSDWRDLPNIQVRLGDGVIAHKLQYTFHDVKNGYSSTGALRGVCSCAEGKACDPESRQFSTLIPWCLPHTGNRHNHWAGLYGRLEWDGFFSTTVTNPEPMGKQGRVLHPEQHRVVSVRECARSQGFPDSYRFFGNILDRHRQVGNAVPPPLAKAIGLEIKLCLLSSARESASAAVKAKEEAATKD

Target: FLAG-c-myc epitope-tagged DNMT1 (DNA methyltransferase 1) from Dnmt1^Tag/+ ES cells (mouse (endogenous in ES cells)) (UniProt P13864)
Assay: affinity purification with mass spectrometry; anti-FLAG M2 magnetic beads on the soluble nuclear fraction of Dnmt1^Tag/+ ES cells (300 mM NaCl, lysed with Universal Nuclease, 4°C), eluted with FLAG peptide; nano-LC-MS/MS; parental Dnmt1^+/+ cells as control

Row | Binder | binding
1 | DROSHA (Class 2 RNase III enzyme, Microprocessor component) (enzyme, UniProt Q5HZJ0 1-1373) MQGNTCHRMSYHPGRGCPRGRGGHGARPSAPAFRPQNLRLLHPQQPPAQYQYEPPSAPSSSYSNSQAPSFMPPRPDFVPYPPPAAPSAQGPLPPCPVRPPYPNHQMRHPFPVPPCFPPMPPPMPCPNNPPASGAPPGQGTFPFMVPPPSMPHPPPPPVMPQQVNYQYPPGYSHSFPPPGFNSYQNNSSSFPPSANSSSTPHFRHLPPYSLPKAQNERRSPERLKHYDDHRHRDHSHGRGERHRSLERRERGRSPERRRPESRYRSDYDRGRTPPPRHRSYERSRERDRERHRHREARRSPSLERSYKKEYKRSGRSYALPVAPEPAGCTPELPGEMIKTTESWAPPPENVNHRSPSREKKRARWEEEKDRWSDSQGSGKEKNYTSIKEKEAEEVPPEKTEEEEEELLKPVWIRCTHSESYYSSDPMDQVGDSTVVGTSRLRDLYDKFEEELGNRQEKAKAARPPWEPPKTKLDEDLESSSESECETDDDSTCSSSSDSEVFDVIAEIKRKKAHPDRLHDELWYNDPGQMNDGPLCKCSAKARRTGIRHSIYPGEEAIKPCRPMTNNAGRLFHYRITVSPPTNFLTDRPTVIEYDDHEYIFEGFSMFAHAPLTNIPLCKVIRFNIDYTIHFIEEMMPENFCVKGLELFSLFLFRDILELYDWNLKGPLFEDSPPCCPRFHFMPRFVRFLPDGGKEVLSMHQILLYLLRCSKALVPEEEIANMLQWEELEWQKYAEECKGMIVTNPGTKPSSVRIDQLDREQFNPEVITFPIIVHFGIRPAQLSYAGDPQYQKLWKSYVKLRHLLANSPKVKQTDKQKLAQREEALQKIRQKNTMRREVTVELSSQGFWKTGIRSDVCQHAMMLPVLTHHIRYHQCLMHLDKLIGYTFQDRCLLQLAMTHPSHHLNFGMNPDHARNSLSNCGIRQPKYGDRKVHHMHMRKKGINTLINIMSRLGQDDPTPSRINHNERLEFLGDAVVEFLTSVHLYYLFPSLEEGGLATYRTAIVQNQHLAMLAKKLELDRFMLYAHGPDLCRESDLRHAMANCFEALIGAVYLEGSLEEAKQLFGRLLFNDPDLREVWLNYPLHPLQLQEPNTDRQLIETSPVLQKLTEFEEAIGVIFTHVRLLARAFTLRTVGFNHLTLGHNQRMEFLGDSIMQLVATEYLFIHFPDHHEGHLTLLRSSLVNNRTQAKVAEELGMQEYAITNDKTKRPVALRTKTLADLLESFIAALYIDKDLEYVHTFMNVCFFPRLKEFILNQDWNDPKSQLQQCCLTLRTEGKEPDIPLYKTLQTVGPSHARTYTVAVYFKGERIGCGKGPSIQQAEMGAAMDALEKYNFPQMAHQKRFIERKYRQELKEMRWEREHQEREPEEAEDIKK | binds
2 | DGCR8 (double stranded RNA-binding protein, Microprocessor component) (protein, UniProt Q9EQM6 1-773) METYESPSPLPREPAGEAMMENRACPFQVLPHEQSPPPPLQTSSDAEVMDVGSGGDGQSEPPADDPFNFYGASLLSKGSFSKGRLLIDPNCSGHSPRTARHAPAVRKFSPDLKLLKDVKISVSFTESCRSKDRKVLYTGVERSTRPECGQLLSPVSGDVHACPFGGSVGNGVGLGGESADKKDEENELDQEKRVEYAVLDELEDFTDNLELDEEGTGGFTAKAIVQRDRVDEEALNFSYEDDFDNDVDALLEEGLCAPKKRRMEEKYGGDSDHPSDGETSVQPMMTKIKTVLKSRGRPPTEPLPDGWIMTFHNSGVPVYLHRESRVVTWSRPYFLGTGSIRKHDPPLSSIPCLHYKKMKDNEEREQNCDLAPSGEVSPVKPLGRSAELDFPLEEPDSMGGDSGSMDEKDPLGAEAAAGALGQVKAKVEVCKDESVDLEEFRNYLEKRFDFEQVTVKKFRTWAERRQFNREMKRKQAESERPILPANQKLITLSVQDAPTKKEFVINPNGKSEVCILHEYMQRVLKVRPVYNFFECENPSEPFGASVTIDGVTYGSGTASSKKLAKNKAARATLEILIPDFVKQTSEEKPKDSEELEYFNHISIEDSRVYELTSKAGLLSPYQILHECLKRNHGMGDTSIKFEVVPGKNQKSEYVMACGKHTVRGWCKNKRVGKQLASQKILQLLHPHVKNWGSLLRMYGRESSKMVKQETSDKSVIELQQYAKKNRPNLHILSKLQEEMKRLAAEREETRKKPKMSIVASAQPGGEPLCTVDV | binds
